PubChem BioAssay AID686938, Drosophila RNAi Screening Center | 2013
The deposit covers about 23,000 reagents; this is an unselected part of those that have a named target and a result. Over the whole deposit, 75 (0.33%) are marked active. 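Raw plate signals without normalisation; calls rest on plate z-scores that were not deposited; ratio present for only 364 wells.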 Entries without a mark were called inactive. The numbers tell different reagents against one gene apart. A plus sign joins genes that one reagent is predicted to hit. Not stated in the record: the dose of the treatment.

- Screen: 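Looking for CRAC channel components and the factors controlling them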 (primary screen)
- System: Drosophila S2R+ cells
- Reagents: long dsRNA against Drosophila genes, about 0.25 µg dsRNA per well, roughly 10,000 cells
- Duration: 5 days of knock-down before the calcium assay
- Challenge: thapsigargin (SERCA pump blocker) to empty calcium stores; entry signal taken 4 min after adding it
- Measurement: 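Per-well fluo-4 fluorescence in two replicates, unnormalised, measured in resting cells and 4 min after store depletion by the SERCA blocker thapsigargin; ratio of the two present in few wells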
- Direction: calcium entry signal: higher = stronger calcium signal after store depletion; resting calcium signal: higher = higher resting calcium signal
- Units: calcium entry signal in fluorescence units; resting calcium signal in fluorescence units
- Active means: 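Called when the plate z-score of the entry-to-rest ratio, mean of duplicates, falls below −3; wells with low overall dye signal (Fmax z below −2) or more than five off-targets excluded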
- Meaning of the calls: active = strongly reduced calcium entry; inactive = no strong reduction

| predicted target | dsRNA no. | calcium entry signal, replicate 1 | calcium entry signal, replicate 2 | resting calcium signal, replicate 1 | resting calcium signal, replicate 2 |
| --- | --- | --- | --- | --- | --- |
| Rlip | 1 | 4.75e7 | 4.53e7 | 5.05e7 | 2.04e7 |
| Cdc23 | 1 | 2.52e7 (active) | – | 1.99e7 | – |
| CG4770 | 1 | 3.28e7 | 4.53e7 | 6.51e7 | 1.77e7 |
| CG13438 | 1 | 2.50e7 | 3.11e7 | 1.30e7 | 1.40e7 |
| Obp50a | 1 | 3.16e7 | 6.64e7 | 1.49e7 | 3.11e7 |
| Or47a | 1 | 2.64e7 | 3.35e7 | 1.35e7 | 1.39e7 |
| msk | 1 | 4.52e7 | 4.01e7 | 3.24e7 | 1.66e7 |
| Ir94c | 1 | 3.57e7 | 2.92e7 | 1.67e7 | 1.43e7 |
| Adgf-C | 1 | 3.11e7 | 4.77e7 | 1.58e7 | 6.86e7 |
| Ldh | 1 | 2.84e7 | 3.75e7 | 1.55e7 | 1.85e7 |
| mol | 1 | 2.51e7 | 4.37e7 | 1.58e7 | 2.22e7 |
| mol | 2 | 8.01e7 | – | 3.52e7 | – |
| mol | 3 | 3.75e7 | 2.59e7 | 1.79e7 | 1.22e7 |
| CG8191 | 1 | 2.93e7 | 3.39e7 | 1.58e7 | 1.56e7 |
| CG16820 | 1 | 4.23e7 | – | 2.19e7 | – |
| Tcs6 + PIG-P | 1 | 4.23e7 | 4.29e7 | 2.28e7 | 2.36e7 |
| Tcs6 + PIG-P | 2 | 3.57e7 | 5.40e7 | 2.12e7 | 2.75e7 |
| Gp93 | 1 | 3.41e7 | 4.28e7 | 1.74e7 | 2.15e7 |
| tho2 | 1 | 2.89e7 | – | 1.68e7 | – |
| Sin3A | 1 | 1.82e7 | 2.61e7 | 1.08e7 | 1.41e7 |
| TotM | 1 | 3.80e7 | 4.40e7 | 1.88e7 | 1.92e7 |
| CG17272 | 1 | 4.16e7 | 5.19e7 | 5.85e7 | 2.12e7 |
| CG16727 | 1 | 3.94e7 | 4.11e7 | 5.88e7 | 1.89e7 |
| CG12439 | 1 | 2.79e7 | 3.48e7 | 1.35e7 | 1.58e7 |
| Tmep | 1 | 2.85e7 | 2.73e7 | 1.36e7 | 1.54e7 |
| CG9346 | 1 | 3.63e7 | – | 1.97e7 | – |
| Obp99a | 1 | 2.72e7 | 3.56e7 | 1.58e7 | 1.79e7 |
| tpr | 1 | 3.32e7 | – | 1.76e7 | – |
| Ir7b | 1 | 2.36e7 | 2.20e7 | 1.34e7 | 1.27e7 |
| Sr-CI | 1 | 4.48e7 | 3.15e7 | 2.45e7 | 1.63e7 |
| CG4041 | 1 | 3.47e7 | 4.28e7 | 1.80e7 | 2.18e7 |
| CG43075 | 1 | 3.83e7 | 3.69e7 | 1.80e7 | 1.76e7 |
| CG15880 | 1 | 3.30e7 | 3.95e7 | 1.58e7 | 1.85e7 |
| gig | 1 | 2.61e7 | 3.83e7 | 1.23e7 | 2.73e7 |
| spn-D | 1 | 4.10e7 | 3.04e7 | 2.09e7 | 1.34e7 |
| CG4483 | 1 | 4.62e7 | 3.61e7 | 2.26e7 | 1.72e7 |
| CG11158 | 1 | 4.54e7 | 3.01e7 | 2.21e7 | 1.45e7 |
| CG34133 | 1 | 3.56e7 | 4.36e7 | 1.71e7 | 2.14e7 |
| CG34133 | 2 | 3.22e7 | 4.31e7 | 1.55e7 | 2.47e7 |
| CG12992 | 1 | 2.31e7 | 2.09e7 | 1.32e7 | 1.09e7 |

5 neighbouring records already listed, quoted:
| predicted target | dsRNA no. | calcium entry signal, replicate 1 | calcium entry signal, replicate 2 | resting calcium signal, replicate 1 | resting calcium signal, replicate 2 |
| --- | --- | --- | --- | --- | --- |
| TotM | 1 | 3.80e7 | 4.40e7 | 1.88e7 | 1.92e7 |
| CG17272 | 1 | 4.16e7 | 5.19e7 | 5.85e7 | 2.12e7 |
| CG16727 | 1 | 3.94e7 | 4.11e7 | 5.88e7 | 1.89e7 |
| CG12439 | 1 | 2.79e7 | 3.48e7 | 1.35e7 | 1.58e7 |
| Tmep | 1 | 2.85e7 | 2.73e7 | 1.36e7 | 1.54e7 |
